# Laboratory results: PubChem BioAssay AID504467 (National Center for Advancing Translational Sciences (NCATS), 2011)
# The whole screen tested about 330,000 compounds, of which about 7,700 (2.3%) were called active. Inconclusive means that the source gave no clear call. Such entries were picked first, then a sample of the others. Calls follow the shape of the dose curve; as a rule, active = well fitted inhibition curve with a large enough effect; inconclusive = small, poorly fitted or top-dose-only effect, or effect the other way; inactive = flat fitted curve, though single readings scatter. Where the call is inconclusive, the potency comes from a doubtful curve fit.
# Assay: qHTS screen for small molecules that inhibit ELG1-dependent DNA repair in human embryonic kidney (HEK293T) cells expressing luciferase-tagged ELG1; also: nearly all actives have a fitted effect of over 55% in size
# Settings: HEK293T ELG1-luciferase reporter, luminescence, 16 h, DNA damage induced by 5-fluorouridine; activity change, negative = inhibition: at 46.1 µM (top of the series)
# In short: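 Luminescence from the luciferase reporter, measured 30 min after ONE-Glo reagent at room temperature, was the read-out. Beforehand, 2,000 cells per well were exposed for 16 hr at 37 °C to 5-fluorouridine together with compound or vehicle.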
# % is scaled to controls: 0 for no effect and ±100 for the full control effect; potency is read from the fitted curve at half-maximal effect.
SMILES,Potency,"activity change, negative = inhibition"
O=C(Nc1ccccc1)N1CCN(c2nc(-c3ccccc3)ns2)CC1,active: 23.1 µM,
Cc1ccc(NC(=O)c2sc3ccccc3c2Cl)nc1,"inconclusive: 1.16 µM [activator, full curve]",
O=C(CCCc1ccccc1)Nc1ccnn1C1CCN(Cc2ccc(CO)o2)CC1,"inconclusive: 29.1 µM [inhibitor, single point]",
O=[N+]([O-])c1ccccc1/C=C/C=N/Nc1nc(N2CCCCC2)nc(N2CCCCC2)n1,,inactive: 0.359%
NS(=O)(=O)c1ccc(NC(=O)c2ccc(S(=O)(=O)N3CCOCC3)o2)cc1,,inactive: 12.2%
C[C@H]1CC[C@]2(O[C@H](CCO)C[C@@H](O)[C@@H]2O)O1,,inactive: 3.94%
CCOC(=O)NC1(NCC(C)C)Oc2ccccc2O1,"inconclusive: 16.4 µM [activator, single point]",
COc1ccc(S(=O)(=O)N2CCC(C(=O)N[C@@H](C)C(=O)NC3CC3)CC2)cc1,"inconclusive: 20.6 µM [activator, partial curve, poor fit]",
CCC(C)[C@H](N)c1cn([C@@H](CCCCN)C(=O)N2CCNCC2)nn1 (some centres not stated),,inactive: 15.4%
Cc1onc(-c2ccccc2Cl)c1C(=O)OCC(=O)N1CCN(c2ccccc2)CC1,,inactive: -3.39%
COc1cc(C(=O)OC2CSCC2NC(=O)c2ccccc2)cc(OC)c1OC (configuration not stated),active: 4.11 µM,
CCOc1ccc(N(CC(=O)Nc2ccc(OC)cc2)S(=O)(=O)c2c(C)noc2C)cc1,"inconclusive: 8.2 µM [inhibitor, partial curve, poor fit]",
COc1ccc(Nc2nc(-c3cccs3)nc3ccccc23)cc1,"inconclusive: 23.1 µM [inhibitor, partial curve]",
COc1ccc(/C=C2\C(=O)NC(=S)N2C(=O)c2ccc(C)cc2)cc1,,inactive: 15.7%
Cc1ccccc1C(=O)N1CCN=C1SCc1ccc([N+](=O)[O-])cc1,"inconclusive: 16.4 µM [inhibitor, single point]",
Cc1ccccc1C(=O)Nc1nnc(SC(C)C)s1,"inconclusive: 18.3 µM [activator, partial curve]",
CCc1nnc(NC(=O)CSCc2cc(=O)n3ccsc3n2)s1,,inactive: 23.9%
O=C(COC(=O)c1cccnc1Cl)NC(=O)c1ccc(OC(F)F)cc1,,inactive: 0%
CCCCNS(=O)(=O)c1ccc(S(=O)(=O)NCc2ccncc2)cc1,"inconclusive: 2.91 µM [inhibitor, partial curve, poor fit]",
O=C(CCN1C(=O)/C(=C/c2cccs2)SC1=S)NC1=NCCS1,,inactive: -6.87%
COc1cc(C(=O)Nc2cc(-c3ccccc3)[nH]n2)cc(OC)c1OC,"inconclusive: 29.1 µM [inhibitor, single point]",
CC1CCN(CCNC(=O)CN(C)S(=O)(=O)c2cccc3nsnc23)CC1,"inconclusive: 0.231 µM [inhibitor, single point]",
O=C(NCCc1c[nH]c2ccccc12)C1CCN(Cc2ccc(Br)cc2)CC1,,inactive: -14%
COc1cc(-c2noc(C3CCCN(S(=O)(=O)c4cccc(Cl)c4)C3)n2)cc(OC)c1OC (configuration not stated),active: 20.6 µM,

# Eight structures from above, sorted by molecular weight, ascending.
SMILES,Potency,"activity change, negative = inhibition"
C[C@H]1CC[C@]2(O[C@H](CCO)C[C@@H](O)[C@@H]2O)O1,,inactive: 3.94%
Cc1ccc(NC(=O)c2sc3ccccc3c2Cl)nc1,"inconclusive: 1.16 µM [activator, full curve]",
COc1ccc(/C=C2\C(=O)NC(=S)N2C(=O)c2ccc(C)cc2)cc1,,inactive: 15.7%
Cc1ccccc1C(=O)N1CCN=C1SCc1ccc([N+](=O)[O-])cc1,"inconclusive: 16.4 µM [inhibitor, single point]",
CC1CCN(CCNC(=O)CN(C)S(=O)(=O)c2cccc3nsnc23)CC1,"inconclusive: 0.231 µM [inhibitor, single point]",
NS(=O)(=O)c1ccc(NC(=O)c2ccc(S(=O)(=O)N3CCOCC3)o2)cc1,,inactive: 12.2%
COc1cc(C(=O)OC2CSCC2NC(=O)c2ccccc2)cc(OC)c1OC (configuration not stated),active: 4.11 µM,
Cc1onc(-c2ccccc2Cl)c1C(=O)OCC(=O)N1CCN(c2ccccc2)CC1,,inactive: -3.39%

# The listing continues.

SMILES,Potency,"activity change, negative = inhibition"
c1ccc(-c2cnc(-c3cccnc3)o2)cc1,"inconclusive: 20.6 µM [activator, partial curve]",
COc1ccc(NC(=O)CSc2nnc3ccc(-c4ccncc4)nn23)cc1,active: 8.2 µM,
CC1CCCC(C)N1CCCNC(=O)c1cc2c(s1)-c1ccccc1OC2 (configuration not stated),,inactive: 16.7%
CCN(CC)CC(=O)Nc1nc(-c2ccc(Cl)cc2)cs1,,inactive: 0.0483%
CCc1ccc(C2C(C#N)=C(N)SC(N)=C2C#N)s1,"inconclusive: 3.66 µM [inhibitor, partial curve, poor fit]",
CC(=O)Nc1nc(-c2ccc3c(c2)CCN3S(C)(=O)=O)cs1,"inconclusive: 6.51 µM [activator, single point]",
CC(=O)N/C(=C\c1ccccc1)C(=O)OC(C)C(=O)Nc1ccccc1F (configuration not stated),,inactive: 7.83%
COC(=O)c1ccccc1S(=O)(=O)N(Cc1cc2cc3c(cc2[nH]c1=O)OCO3)C1CCCCC1,"inconclusive: 29.1 µM [inhibitor, single point]",
O=C(O)CC(NC(=O)C1c2ccccc2Oc2ccccc21)c1ccc(Cl)cc1 (configuration not stated),"inconclusive: 16.4 µM [activator, partial curve]",
O=C(CNC(=O)c1ccc(Br)cc1)c1ccccc1,"inconclusive: 9.2 µM [activator, partial curve]",
Clc1ccc(/C=C/c2nc3ccccc3[nH]2)c(Cl)c1,"inconclusive: 0.164 µM [activator, full curve, poor fit]",
COc1ccc(/C=C2/SC(=S)N(CCC(=O)N3CCN(C)CC3)C2=O)cc1,,inactive: 5.79%
COC(=O)c1ccc(Nc2nc(C)nc3c2nnn3Cc2ccccc2)cc1,,inactive: 1.67%
CC1(C)Cc2c(sc3nc(SCC(=O)NCc4ccccc4)n(-c4ccccc4)c(=O)c23)CS1,"inconclusive: 8.91 µM [inhibitor, partial curve]",
CCN(C(=O)COC(=O)c1ccc2ccccc2n1)c1c(N)n(Cc2ccccc2)c(=O)[nH]c1=O,"inconclusive: 25.9 µM [activator, single point]",
COc1ccc(Cc2nnc(NC(=O)c3ccccc3[N+](=O)[O-])s2)cc1,,inactive: -1.08%
C[C@H]1CC[C@H]2C(=O)N3[C@H](c4cccc(N5CCCC5=O)c4)[C@@H](C)CC[C@H]3C(=O)N2[C@@H]1c1cccc(N2CCCC2=O)c1,"inconclusive: 29.1 µM [inhibitor, single point]",
O=c1c2sccc2[nH]c(=S)n1Cc1ccccc1,,inactive: 15.3%
Cc1ccc2nc(-c3ccncc3)cc(C(=O)NCCc3ccc(F)cc3)c2c1,,inactive: 11.2%
COc1ccc(C(=O)NCCOc2cccc(Oc3ccccc3)c2)cc1OC,"inconclusive: 28.2 µM [inhibitor, single point]",
Cc1ccc(-c2nn[nH]n2)cc1Cl,,inactive: 0%
Cc1n[nH]c(=O)c2c(NC(=O)CSc3ncccn3)oc(C)c12,"inconclusive: 0.73 µM [inhibitor, single point]",
COc1ccc(-c2noc(CN(C(=O)c3c(-c4ccccc4Cl)noc3C)C(C)C)n2)cc1,"inconclusive: 18.4 µM [inhibitor, single point]",
